These are yes or no findings as the source states them, for the method shown. Binding seen in cells or lysates may run through a third protein. A yes stands for co-enrichment or nearness to the bait. Other partners may have been found. Sequences can lack the tags named with a protein.
Target: T1, GST-PrkC (Serine/threonine-protein kinase PrkC) (Bacillus subtilis str. 168) (UniProt O34507)
T1 sequence: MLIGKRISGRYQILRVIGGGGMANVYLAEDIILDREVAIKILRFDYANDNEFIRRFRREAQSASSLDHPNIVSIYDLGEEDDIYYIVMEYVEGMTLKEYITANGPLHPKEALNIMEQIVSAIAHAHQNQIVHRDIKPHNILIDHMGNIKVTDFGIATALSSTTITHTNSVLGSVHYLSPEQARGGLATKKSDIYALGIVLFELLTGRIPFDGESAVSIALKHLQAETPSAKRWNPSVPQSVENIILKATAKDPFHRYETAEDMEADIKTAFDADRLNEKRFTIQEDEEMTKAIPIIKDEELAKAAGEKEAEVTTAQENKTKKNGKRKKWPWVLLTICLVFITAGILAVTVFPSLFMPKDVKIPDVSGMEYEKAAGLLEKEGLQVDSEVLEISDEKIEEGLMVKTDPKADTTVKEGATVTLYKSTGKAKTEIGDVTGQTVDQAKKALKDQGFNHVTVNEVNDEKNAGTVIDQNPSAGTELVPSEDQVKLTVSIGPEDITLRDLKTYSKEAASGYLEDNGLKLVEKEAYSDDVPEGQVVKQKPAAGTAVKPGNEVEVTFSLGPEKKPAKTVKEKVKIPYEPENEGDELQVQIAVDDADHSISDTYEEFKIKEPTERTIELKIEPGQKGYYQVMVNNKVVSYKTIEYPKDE
Test: affinity purification with mass spectrometry; GST-PrkC on glutathione resin incubated with B. subtilis spore lysate at 4 °C; resin washed; bound proteins eluted with 20 mM reduced glutathione; eluate digested with trypsin and analysed by LC-MS/MS; hits filtered at 1% FDR, >=2 unique peptides; only the target purified

Amino acid sequences for entries named in this document (tags omitted).
UniProt P13714: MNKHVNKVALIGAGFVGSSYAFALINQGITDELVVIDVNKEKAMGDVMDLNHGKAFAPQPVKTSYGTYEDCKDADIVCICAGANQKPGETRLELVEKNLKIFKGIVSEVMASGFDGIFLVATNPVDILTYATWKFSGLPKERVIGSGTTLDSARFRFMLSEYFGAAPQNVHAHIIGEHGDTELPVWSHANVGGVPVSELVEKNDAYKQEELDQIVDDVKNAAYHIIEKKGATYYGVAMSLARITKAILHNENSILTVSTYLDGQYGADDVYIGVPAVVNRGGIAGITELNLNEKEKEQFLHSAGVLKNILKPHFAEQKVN
UniProt Q05470: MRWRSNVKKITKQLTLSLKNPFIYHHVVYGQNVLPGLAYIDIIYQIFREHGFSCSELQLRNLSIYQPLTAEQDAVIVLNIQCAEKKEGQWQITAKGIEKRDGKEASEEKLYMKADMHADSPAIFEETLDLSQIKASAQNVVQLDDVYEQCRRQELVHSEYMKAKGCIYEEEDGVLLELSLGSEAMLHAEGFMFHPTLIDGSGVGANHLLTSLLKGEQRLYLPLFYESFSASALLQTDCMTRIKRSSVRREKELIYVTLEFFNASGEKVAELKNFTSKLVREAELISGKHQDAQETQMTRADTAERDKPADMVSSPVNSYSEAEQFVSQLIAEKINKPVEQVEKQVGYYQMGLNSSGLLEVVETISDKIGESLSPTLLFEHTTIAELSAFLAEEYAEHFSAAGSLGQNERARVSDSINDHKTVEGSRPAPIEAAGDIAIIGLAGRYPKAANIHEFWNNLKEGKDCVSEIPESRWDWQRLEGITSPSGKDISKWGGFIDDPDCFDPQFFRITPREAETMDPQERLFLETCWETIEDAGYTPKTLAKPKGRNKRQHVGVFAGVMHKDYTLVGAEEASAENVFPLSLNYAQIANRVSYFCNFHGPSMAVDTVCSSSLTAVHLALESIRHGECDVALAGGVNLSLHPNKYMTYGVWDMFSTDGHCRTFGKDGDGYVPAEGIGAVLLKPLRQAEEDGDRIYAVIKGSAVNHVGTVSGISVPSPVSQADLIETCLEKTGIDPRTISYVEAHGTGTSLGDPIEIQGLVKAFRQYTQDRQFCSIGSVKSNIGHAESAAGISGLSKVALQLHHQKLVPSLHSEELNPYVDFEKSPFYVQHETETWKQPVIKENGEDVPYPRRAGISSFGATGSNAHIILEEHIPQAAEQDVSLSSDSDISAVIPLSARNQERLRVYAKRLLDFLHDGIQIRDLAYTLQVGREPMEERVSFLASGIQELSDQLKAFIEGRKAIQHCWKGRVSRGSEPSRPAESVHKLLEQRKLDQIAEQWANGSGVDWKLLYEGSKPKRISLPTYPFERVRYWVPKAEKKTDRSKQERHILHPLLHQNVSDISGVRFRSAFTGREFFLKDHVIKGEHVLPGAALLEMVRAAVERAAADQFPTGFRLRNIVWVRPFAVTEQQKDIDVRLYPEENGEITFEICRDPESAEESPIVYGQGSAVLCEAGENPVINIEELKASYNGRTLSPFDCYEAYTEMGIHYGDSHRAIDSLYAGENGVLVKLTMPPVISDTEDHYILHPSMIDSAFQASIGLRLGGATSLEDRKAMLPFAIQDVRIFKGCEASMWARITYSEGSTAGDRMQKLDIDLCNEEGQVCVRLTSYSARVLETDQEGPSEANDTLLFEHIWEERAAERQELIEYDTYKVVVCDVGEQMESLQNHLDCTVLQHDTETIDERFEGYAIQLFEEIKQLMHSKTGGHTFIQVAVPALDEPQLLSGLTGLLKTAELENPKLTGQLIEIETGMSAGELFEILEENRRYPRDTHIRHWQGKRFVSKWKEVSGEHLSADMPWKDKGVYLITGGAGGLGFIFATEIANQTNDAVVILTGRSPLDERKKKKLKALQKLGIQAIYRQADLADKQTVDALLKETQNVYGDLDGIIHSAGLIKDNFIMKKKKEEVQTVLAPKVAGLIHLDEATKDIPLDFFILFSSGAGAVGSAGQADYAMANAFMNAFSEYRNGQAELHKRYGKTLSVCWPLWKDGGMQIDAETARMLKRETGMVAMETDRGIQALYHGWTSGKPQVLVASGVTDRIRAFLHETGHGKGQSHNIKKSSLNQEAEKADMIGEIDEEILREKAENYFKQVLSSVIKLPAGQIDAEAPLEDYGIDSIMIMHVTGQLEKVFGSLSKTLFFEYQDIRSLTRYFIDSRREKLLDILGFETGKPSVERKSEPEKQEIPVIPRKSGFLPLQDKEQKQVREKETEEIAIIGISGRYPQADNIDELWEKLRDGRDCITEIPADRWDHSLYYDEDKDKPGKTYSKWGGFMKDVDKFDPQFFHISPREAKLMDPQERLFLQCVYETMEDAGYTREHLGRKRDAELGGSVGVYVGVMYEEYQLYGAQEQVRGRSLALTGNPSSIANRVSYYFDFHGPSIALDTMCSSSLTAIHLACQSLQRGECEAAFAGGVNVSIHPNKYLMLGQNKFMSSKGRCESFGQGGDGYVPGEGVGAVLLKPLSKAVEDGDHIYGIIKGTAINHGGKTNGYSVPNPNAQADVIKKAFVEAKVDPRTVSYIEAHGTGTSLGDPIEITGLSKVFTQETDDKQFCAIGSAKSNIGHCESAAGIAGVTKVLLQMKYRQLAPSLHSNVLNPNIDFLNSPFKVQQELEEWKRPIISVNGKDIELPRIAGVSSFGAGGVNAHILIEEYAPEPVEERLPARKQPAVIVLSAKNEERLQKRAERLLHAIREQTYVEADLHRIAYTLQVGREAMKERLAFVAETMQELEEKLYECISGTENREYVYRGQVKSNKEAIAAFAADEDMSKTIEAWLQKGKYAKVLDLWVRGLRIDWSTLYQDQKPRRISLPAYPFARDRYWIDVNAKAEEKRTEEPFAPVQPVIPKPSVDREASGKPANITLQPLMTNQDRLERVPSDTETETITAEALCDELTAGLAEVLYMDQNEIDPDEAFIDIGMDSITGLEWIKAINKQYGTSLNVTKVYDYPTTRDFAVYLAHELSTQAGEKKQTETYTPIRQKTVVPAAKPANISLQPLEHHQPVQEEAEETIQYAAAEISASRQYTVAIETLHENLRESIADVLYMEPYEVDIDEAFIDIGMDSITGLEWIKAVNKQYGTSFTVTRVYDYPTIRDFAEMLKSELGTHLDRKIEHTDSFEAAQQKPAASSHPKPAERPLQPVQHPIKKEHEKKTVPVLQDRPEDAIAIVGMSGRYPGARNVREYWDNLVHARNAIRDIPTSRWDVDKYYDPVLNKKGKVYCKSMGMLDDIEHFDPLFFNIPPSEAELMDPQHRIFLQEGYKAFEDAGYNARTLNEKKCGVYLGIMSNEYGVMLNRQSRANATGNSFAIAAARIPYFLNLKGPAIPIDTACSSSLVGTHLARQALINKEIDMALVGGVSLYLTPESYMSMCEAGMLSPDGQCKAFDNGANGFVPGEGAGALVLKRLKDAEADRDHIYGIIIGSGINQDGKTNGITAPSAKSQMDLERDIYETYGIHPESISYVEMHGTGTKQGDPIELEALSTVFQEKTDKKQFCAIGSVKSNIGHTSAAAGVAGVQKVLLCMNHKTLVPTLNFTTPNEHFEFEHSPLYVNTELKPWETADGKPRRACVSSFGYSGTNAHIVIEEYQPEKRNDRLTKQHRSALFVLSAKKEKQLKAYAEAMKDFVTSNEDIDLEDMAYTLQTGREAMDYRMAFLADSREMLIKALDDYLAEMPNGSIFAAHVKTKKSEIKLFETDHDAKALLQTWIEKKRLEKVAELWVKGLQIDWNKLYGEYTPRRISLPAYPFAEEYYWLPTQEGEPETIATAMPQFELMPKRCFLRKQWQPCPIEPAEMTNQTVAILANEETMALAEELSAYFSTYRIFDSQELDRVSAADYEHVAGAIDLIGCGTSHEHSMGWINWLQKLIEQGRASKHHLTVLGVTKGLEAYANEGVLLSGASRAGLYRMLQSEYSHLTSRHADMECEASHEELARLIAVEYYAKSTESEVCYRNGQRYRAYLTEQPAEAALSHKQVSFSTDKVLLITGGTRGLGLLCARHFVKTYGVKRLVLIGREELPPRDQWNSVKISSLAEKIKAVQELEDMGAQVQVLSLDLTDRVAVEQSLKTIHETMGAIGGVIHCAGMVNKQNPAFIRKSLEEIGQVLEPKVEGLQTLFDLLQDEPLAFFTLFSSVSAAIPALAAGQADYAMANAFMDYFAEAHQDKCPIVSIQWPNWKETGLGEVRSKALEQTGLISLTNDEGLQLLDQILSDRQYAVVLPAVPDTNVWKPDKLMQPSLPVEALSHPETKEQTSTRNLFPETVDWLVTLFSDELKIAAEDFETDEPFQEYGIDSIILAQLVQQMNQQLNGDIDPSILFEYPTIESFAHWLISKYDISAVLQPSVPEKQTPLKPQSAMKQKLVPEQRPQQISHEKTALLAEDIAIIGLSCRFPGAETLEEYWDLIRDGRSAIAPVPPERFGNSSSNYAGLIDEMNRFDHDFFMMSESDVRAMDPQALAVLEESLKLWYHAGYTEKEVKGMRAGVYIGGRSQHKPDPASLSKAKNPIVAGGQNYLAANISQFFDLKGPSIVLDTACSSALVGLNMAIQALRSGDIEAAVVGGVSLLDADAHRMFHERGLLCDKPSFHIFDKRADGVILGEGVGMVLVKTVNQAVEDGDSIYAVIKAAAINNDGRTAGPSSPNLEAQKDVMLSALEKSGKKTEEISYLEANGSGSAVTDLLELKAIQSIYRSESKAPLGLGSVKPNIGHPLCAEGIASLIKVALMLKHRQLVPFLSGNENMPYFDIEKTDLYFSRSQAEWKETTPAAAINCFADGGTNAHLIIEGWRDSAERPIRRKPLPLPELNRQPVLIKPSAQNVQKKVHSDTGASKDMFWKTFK
UniProt P45931: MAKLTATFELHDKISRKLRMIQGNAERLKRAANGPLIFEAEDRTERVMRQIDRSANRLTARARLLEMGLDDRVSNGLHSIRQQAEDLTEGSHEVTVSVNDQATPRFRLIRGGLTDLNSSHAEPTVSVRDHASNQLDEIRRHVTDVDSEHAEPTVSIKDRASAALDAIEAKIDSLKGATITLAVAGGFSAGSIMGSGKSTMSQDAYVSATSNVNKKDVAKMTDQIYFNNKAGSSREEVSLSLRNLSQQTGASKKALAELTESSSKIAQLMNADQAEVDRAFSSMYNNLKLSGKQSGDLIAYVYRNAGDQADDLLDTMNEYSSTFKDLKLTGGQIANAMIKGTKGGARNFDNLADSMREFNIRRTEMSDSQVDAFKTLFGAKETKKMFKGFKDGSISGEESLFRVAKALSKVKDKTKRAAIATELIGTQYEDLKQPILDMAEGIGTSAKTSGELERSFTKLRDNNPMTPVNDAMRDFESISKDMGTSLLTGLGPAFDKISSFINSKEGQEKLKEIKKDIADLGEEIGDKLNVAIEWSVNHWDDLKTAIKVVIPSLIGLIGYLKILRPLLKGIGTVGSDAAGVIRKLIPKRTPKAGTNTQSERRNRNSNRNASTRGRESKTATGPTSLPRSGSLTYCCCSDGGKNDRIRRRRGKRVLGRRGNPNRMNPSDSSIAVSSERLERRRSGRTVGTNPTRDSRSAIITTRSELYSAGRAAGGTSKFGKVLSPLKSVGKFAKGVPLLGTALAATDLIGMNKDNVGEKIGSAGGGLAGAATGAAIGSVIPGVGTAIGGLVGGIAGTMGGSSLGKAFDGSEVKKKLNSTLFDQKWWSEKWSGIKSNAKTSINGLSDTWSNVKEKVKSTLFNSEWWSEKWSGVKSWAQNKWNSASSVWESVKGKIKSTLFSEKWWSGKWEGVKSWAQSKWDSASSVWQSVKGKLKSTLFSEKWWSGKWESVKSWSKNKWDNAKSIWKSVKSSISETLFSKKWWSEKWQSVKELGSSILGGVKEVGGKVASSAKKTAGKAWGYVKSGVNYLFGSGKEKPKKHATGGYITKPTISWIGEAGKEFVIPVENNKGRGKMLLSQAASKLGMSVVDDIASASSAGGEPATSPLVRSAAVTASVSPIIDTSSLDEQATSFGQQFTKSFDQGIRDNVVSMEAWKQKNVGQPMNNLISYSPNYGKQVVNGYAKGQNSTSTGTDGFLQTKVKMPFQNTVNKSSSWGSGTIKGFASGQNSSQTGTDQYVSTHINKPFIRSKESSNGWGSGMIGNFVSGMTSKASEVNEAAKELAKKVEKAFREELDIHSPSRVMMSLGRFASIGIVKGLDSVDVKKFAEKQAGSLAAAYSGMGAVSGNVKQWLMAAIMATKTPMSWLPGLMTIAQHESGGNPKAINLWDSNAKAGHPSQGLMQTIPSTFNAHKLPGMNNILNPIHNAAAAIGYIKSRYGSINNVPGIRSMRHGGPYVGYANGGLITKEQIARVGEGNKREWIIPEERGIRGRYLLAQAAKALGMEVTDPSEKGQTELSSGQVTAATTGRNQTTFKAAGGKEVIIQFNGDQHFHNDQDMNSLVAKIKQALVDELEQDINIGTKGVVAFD

For “ATP synthase subunit alpha (from UniProt P37808 1-502)”, which binding is on record?
Its binding is “binds”.

“Chaperone protein DnaK (from UniProt P17820 1-611)” was tested. Which binding did it give?
The binding was “binds”.

For “Elongation factor Tu (from UniProt P33166 1-396)”, which binding is on record?
The binding was “binds”.

How did the binding turn out when “FMN-dependent NADPH-azoreductase (from UniProt O07529 1-174)” was run?
Its binding is “binds”.

“Glucose 1-dehydrogenase (from UniProt P12310 1-261)” was tested. Which binding did it give?
The binding was “binds”.

“Heme-based aerotactic transducer HemAT (from UniProt O07621 1-432)” was tested. Which binding did it give?
Its binding is “binds”.

Which binding does the source give for “L-lactate dehydrogenase (from UniProt P13714 1-320)” here?
The binding was “binds”.

“Plipastatin synthase subunit B (from UniProt P39846 1-2560)” was tested. Which binding did it give?
Its binding is “binds”.

Which binding does the source give for “Polyketide synthase PksJ (from UniProt P40806 1-5043)” here?
The binding was “binds”.

How did the binding turn out when “Polyketide synthase PksL (from UniProt Q05470 1-4538)” was run?
The binding was “binds”.

Which binding does the source give for “Polyketide synthase PksM (from UniProt P40872 1-4262)” here?
The binding was “binds”.

“Surfactin synthase subunit 1 (from UniProt P27206 1-3587)” was tested. Which binding did it give?
The binding was “binds”.

“Uncharacterized protein YqbO (from UniProt P45931 1-1585)” was tested. Which binding did it give?
The binding was “binds”.
